Test results published in article doi:10.1101/2019.12.24.888255.

Sequences of proteins named here, by UniProt entry; tags and fusion partners are left off. A change or cut given only in a name is not applied to a line headed by its entry.
UniProt P05230: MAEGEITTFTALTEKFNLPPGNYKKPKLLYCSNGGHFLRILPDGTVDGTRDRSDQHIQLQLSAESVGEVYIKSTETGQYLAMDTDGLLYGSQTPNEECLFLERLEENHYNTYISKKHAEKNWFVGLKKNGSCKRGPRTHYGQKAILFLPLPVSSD

Legend:
[1] = biological target: acidic human fibroblast growth factor (hFGF1) (human) (UniProt P05230); assay: SEC
[2] = biological target: acidic human fibroblast growth factor (hFGF1) (human) (UniProt P05230); assay: condition: only non-heat-treated, room temperature

binding [1]: binds weakly | binding [2]: no binding
Substance: chloroplast signal recognition particle 43-kDa subunit (cpSRP43) (from UniProt O22265 57-373)

Results are given in words; binding and its absence hold for the method and conditions named. For some assays here: A result given as binding can be weak or reduced; the word gives no strength.
